In all, about 6,900 compounds went through this assay and fewer than 10 were called active. Calls follow the shape of the dose curve; as a rule, active = well fitted curve in the direction sought with a large enough effect; inconclusive = small, poorly fitted or top-dose-only effect, or another doubt; inactive = no such curve, though single readings can be large or run the other way. Some of the results follow.
Target: Metallo-beta-lactamase type 2 (Klebsiella pneumoniae) (UniProt C7C422)
Test: qHTS to identify inhibitors of the New Delhi Metallo-beta-lactamase (NDM): primary screen against the NCATS Gemini Collection; also: % of control where 0% means no effect
Details: NDM-1 enzyme, meropenem hydrolysis, absorbance 300 nm; at 38.4 µM (top of the series) unless noted
Summary of the method: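 NDM-1 at 2 nM final in 50 mM HEPES pH 7.0, 1 uM ZnSO4, 0.01% Tween20, preincubated >30 min with compound. Meropenem 50 uM final added; absorbance at 300 nm after 30 min.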

Sequences of proteins named here, by UniProt entry; tags and fusion partners are left off. A change or cut given only in a name is not applied to a line headed by its entry.
UniProt C7C422: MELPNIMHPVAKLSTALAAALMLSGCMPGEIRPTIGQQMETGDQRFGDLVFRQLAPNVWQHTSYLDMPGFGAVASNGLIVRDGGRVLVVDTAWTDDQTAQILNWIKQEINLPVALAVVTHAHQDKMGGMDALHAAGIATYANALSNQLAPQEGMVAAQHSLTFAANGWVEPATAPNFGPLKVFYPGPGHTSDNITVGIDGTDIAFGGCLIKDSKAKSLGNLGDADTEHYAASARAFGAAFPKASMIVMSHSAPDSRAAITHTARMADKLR

Activity % (negative = inhibition), inactive:
Cc1cc(CN2C[C@@H](CO)[C@H](C(=O)N(C)C)C2)n(C)n1 2.83%
Cc1ccsc1C(=O)N1CCCC(CN2CCCC2)CC1 (centres undefined) 0.12%
COCc1noc([C@@H]2CC(F)(F)CN2C(=O)Cc2cccc(F)c2)n1 0.871%
COc1ccc(CN2Cc3[nH]cnc3C[C@H]2c2nc(Cc3ccccc3)no2)cc1 8.11% [at 57.5 µM]
CCCN1CCCC2(CCN(C(=O)c3ccc4nc(C)sc4c3)C2)C1=O (centres undefined) 8.31%
COc1ccc(CCNC(=O)C23CCC=C2N(C2CCCC2)C(=O)CC3)cc1OC (centres undefined) -8.22%
Cc1ccncc1-c1c(C)nn2c1N(Cc1ccc(C(=O)O)cc1)CCC2 11.7% [at 57.5 µM]
OCC1(Cc2ccccc2)CCCN(Cc2cn[nH]c2-c2ccc(F)cc2)C1 (centres undefined) -1.94%
O=C(N[C@H]1CO[C@H]2[C@@H]1OC[C@@H]2Nc1nccc(-c2ccco2)n1)c1ccco1 25.5% [at 57.5 µM]
CC(C)(C)c1cc(C[C@H]2CNCC[C@H]2CC(=O)NC2CCCCC2)no1 0.167% [at 57.5 µM]
CC(=O)N1CCC(N2CC[C@H](c3nc4ccccc4s3)C2)CC1 60.4% [at 57.5 µM]
COC[C@H]1C[C@@H](NS(C)(=O)=O)[C@H](O)[C@@H]1O -0.945% [at 77.1 µM]
OCC1(CC2CC2)CCCN(Cc2ccc(C(F)(F)F)nc2)C1 (centres undefined) -1.97%
O=C(COc1ccccc1)N1CCC(OCc2ccccc2)C1 (centres undefined) -0.789%
O=C(Cc1ccc(Cl)cc1)N1CCc2c(nc3cc[nH]n3c2=O)C1 1.76%
O=C(c1ccc(-c2cccc(O)c2)nc1)N1CCCN(c2ncccn2)CC1 37.1%
CN1CCN(c2cc(=O)c3ccnc(Nc4ccc(F)c(Cl)c4)c3o2)CC1 18.7% [at 57.5 µM]
COCCNc1cc(-c2noc([C@@H]3CCCN3CC(C)C)n2)ccn1 -1.56% [at 57.5 µM]
O=C(NCc1ccc(F)cc1)N1CCC(OC2CCN(Cc3ccccc3)CC2)CC1 20.5%
COc1ccc(C2=NOC3(CCN(Cc4cccn4C)C3)C2)cc1 (centres undefined) 14.6% [at 57.5 µM]
Cc1ocnc1C(=O)N1CCC2(CCCN(CCCc3ccccc3)C2=O)C1 (centres undefined) -1.64%
O=C(N[C@H]1CO[C@H]2[C@@H]1OC[C@@H]2n1nnnc1Oc1ccc(-n2ccnc2)cc1)c1ccccc1 -0.35%
CC(C)NC(=O)c1onc(-c2ccc(Cl)cc2)c1[C@H](C)O 0.697% [at 57.5 µM]
O=C(c1ccc(CN2C(=O)NC3(CCOCC3)C2=O)cc1)N1CCc2ccccc2C1 15.1%
COC1CCOC2(CCN(C(=O)CCc3nc4ccccc4s3)CC2)C1 (centres undefined) 18.8%
O=C(Cc1ccccn1)N1CCN(C(=O)c2cccc(-c3ccccn3)c2)CC1 1.66%
Cc1ccc(Nc2ccnc(N3CCCN([S+](=O)([O-])c4ccc(C)cc4)C3)n2)cc1 2.36%
CC1=C(C(=O)OC(C)C)C(c2ccccc2Cl)CC(=O)N1Cc1c(F)cccc1F (centres undefined) -2.2%
O=C(N[C@@H]1CN(Cc2ccccc2)C[C@H]1CO)c1cccnc1 -2.83%
COCCOCc1nc(C2CCCCN2C(=O)NCc2ccc(F)cc2)no1 (centres undefined) 0.427%
COCC1(CNCc2c(C)noc2C)C[C@@H](O)[C@@H](O)C1 (some centres undefined) 17.6% [at 77.1 µM]
Cc1ccc(CN2CCCC(C(=O)N3CCN(c4ccccn4)CC3)CCNC(=O)CC2)s1 (centres undefined) 3.61%
OCC1(CCCc2ccccc2)CCN(Cc2cccc3c2OCO3)CC1 9.09%
Cn1ncc(N2CCC(CNC(=O)c3cccc4ccnn34)C2)cc1=O (centres undefined) 6.77%
O=C(O)C[C@@H]1CCN(S(=O)(=O)c2ccccc2)C[C@@H]1CCN(CCN1CCOCC1)c1ccccc1 -9.15%
CC(C)n1ccnc1CN1CCC2(CCCO2)CCC1=O (centres undefined) -4.83%
CCn1cc(CN2C[C@@H]3C(=O)N(CCCN4CCCC4=O)C(=O)[C@@H]3C2)cn1 -1.86%
Cc1cccc(C(=O)N2CCC(c3nc(-c4cccn4C)no3)C2)c1 (centres undefined) 3.93%
O=C(O)c1ccc(C2CCCN(C(=O)c3cccc(N4CCOCC4)c3)C2)cc1 (centres undefined) 4.4%
COCCNC(=O)c1ccc2oc(-c3ccncc3Cl)nc2c1 38.1% [at 57.5 µM]
O=C(O)CCC(=O)N1Cc2[nH]cnc2C[C@H]1c1nc(-c2ccc(OC(F)(F)F)cc2)no1 -0.651%
CCc1cc(=O)[nH]c(N2CCOCC2)n1 -0.476%
COc1ccc(C(=O)N2CCCC2)c(OC2CCN(C(=O)C3C=CCN3)CC2)c1 (centres undefined) 0.195%
c1ccc(C2=NOC3(CCCN(CC4CCCC4)C3)C2)cc1 (centres undefined) -1.66% [at 57.5 µM]
COCCNC(=O)CN1C(=O)NC(c2cccs2)C2=C1COC2=O (centres undefined) 0.454%
CC(C)c1cc(C2CCN(Cc3cn[nH]c3-c3ccccc3)CC2)[nH]n1 -1.79%
CC1CCCN(C(=O)CN2CCCc3nc(-c4ccccc4)ncc3C2=O)C1 (centres undefined) 12.2%
COc1cncc(NC(=O)C2=NO[C@@H]3CN(Cc4ccccc4)C[C@H]23)c1 13.6% [at 57.5 µM]
CNCc1cn(C2CCN(Cc3c(OC)ccc(F)c3F)CC2)nn1 -5.93%
O=c1cc(-c2cnccn2)oc2c(Nc3cccc(OC(F)(F)F)c3)nccc12 5.49% [at 57.5 µM]
C=CCC1(C(=O)O)CCCN(C(=O)Cc2c[nH]c(=O)n(C)c2=O)C1 (centres undefined) -9.59%
CNC(=O)[C@@H]1CN(C(=O)c2ccoc2C)C[C@H]1c1nc(C)no1 6.64%
CS(=O)(=O)N1CCC2(CC1)CN(C(=O)c1ccc(Cl)cc1)CCO2 17.5%
CCc1ncc2c(N3CC4CCC(C3)N4CC(F)(F)F)nc3ccccc3n12 6.17%
CCc1nc(-c2ccc(OC3CCN(C(=O)Cc4c[nH]c5ccccc45)C3)cc2)no1 (centres undefined) 12.3%
CN1c2cc(C(=O)N3CCN(c4ccccn4)CC3)ccc2C(=O)N2CCCCC21 (centres undefined) 0.413%
COCc1ccc2c(c1)c(OC(C)(C)C(=O)N1CCN(C)CC1)nn2Cc1ccccc1 -0.183% [at 57.5 µM]
CC(=O)Nc1ccc(S(=O)(=O)N2C[C@@H]3C[C@H](C2)c2c(-c4ccc(OC(F)(F)F)cc4)ccc(=O)n2C3)cc1 6.11%
COc1cccc(C(=O)N(C)Cc2ccccc2C(F)(F)F)c1 -4.85% [at 57.5 µM]
CC(C)C(Oc1ccccc1)C(=O)N1CCc2c(ncnc2N(C)C)C1 (centres undefined) 21.6%
O=Cc1ccc(N2CCN([S+](=O)([O-])C3CC3)CC2=O)cc1 5.58%
CN1CCC[C@H]1c1nc(-c2ccc(F)cn2)no1 10.1% [at 77.1 µM]
O=c1[nH]c(-c2ccc(F)cc2)nc2c1CCN(S(=O)(=O)c1cccs1)C2 -0.234%
COc1ccccc1NC(=O)Nc1ccc2n(c1=O)C[C@H]1C[C@@H]2CN(C(=O)Cc2cccs2)C1 -1.46%
Cn1c(C(=O)N2CCN(c3ccccn3)CC2)nc2nc(-c3ccccc3)c(Cl)cc21 10.1% [at 57.5 µM]
COCC(=O)N1CC(C(=O)NCc2ccncc2)C2(CCOCC2)C1 (centres undefined) -9.81%
COc1ccc(-c2ccc3nnc(CNC(=O)c4ccoc4)n3n2)cc1 8.36%
CCCC(=O)N1CCC(N2C(=O)N(Cc3cccnc3)CC23CCOC3)CC1 (centres undefined) 3.93%
CC(C)Cc1nc(CN2CCn3nc(C(O)c4ccnn4C)cc3C2)no1 (centres undefined) -2.55%
CC(Oc1ccc2ccccc2c1)C(=O)N(C)Cc1ccc2nsnc2c1 (centres undefined) 23.8%
O=C(c1ccsc1)N1CCC2(CCCN(CC3CCC3)C2=O)C1 (centres undefined) -1.29%
O=C1CCCCN1CCNc1ccc(-c2nc(-c3ccccc3F)no2)cn1 12.3%
O=C(NC1CCN(c2cc(-c3ccc(F)cc3)[nH]n2)C1)c1cc2ccccc2[nH]1 (centres undefined) 8.83%
Cc1cc(C(=O)NC2CCCC2)c2c(C3CCNC3)noc2n1 (centres undefined) 1.69%
FC(F)(F)c1ccc(N2C3CCC2CN(Cc2ccc(-c4ccccc4)cc2)C3)cc1 1.69%
COCCc1noc(C2Cc3ccccc3N2C(=O)Cc2ccc(OC)c(OC)c2)n1 (centres undefined) 4.38%
COc1ccc(N2CCN(C(=O)c3cc(NC(C)=O)cc4nc(C)ccc34)CC2)cc1 4.08%
CC(=O)N[C@H]1CN(S(=O)(=O)c2ccc(C)c(F)c2)C[C@@H]1C(C)C 18.9%
COc1ccc(C2CCC(=O)N2Cc2ccc(F)cc2)cc1 (centres undefined) -2.11%
O=C(Cn1cccc1-c1nc(-c2ccccc2)no1)N1CCN(c2ccccc2)CC1 -0.659%
CC(C)C(=O)NCC(=O)N1CCC2(CC1)Nc1ccccc1NC2=O 8.84%
Cc1cc(C(=O)N2CCn3nc(C(C)O)cc3C2)c2ccc(F)cc2n1 (centres undefined) -3.09%
CCN1CCN(C(=O)c2cn3cc(-c4cccnc4)sc3n2)CC1 15.3% [at 57.5 µM]
Cn1cnc2ccc(-c3ccncc3)nc2c1=O 106% [at 77.1 µM]

4 compounds picked at random from those above:
Activity % (negative = inhibition), inactive:
COCCOCc1nc(C2CCCCN2C(=O)NCc2ccc(F)cc2)no1 (centres undefined) 0.427%
O=Cc1ccc(N2CCN([S+](=O)([O-])C3CC3)CC2=O)cc1 5.58%
CC(=O)N[C@H]1CN(S(=O)(=O)c2ccc(C)c(F)c2)C[C@@H]1C(C)C 18.9%
Cn1c(C(=O)N2CCN(c3ccccn3)CC2)nc2nc(-c3ccccc3)c(Cl)cc21 10.1% [at 57.5 µM]

— PubChem BioAssay AID1794845 (National Center for Advancing Translational Sciences (NCATS), 2023)
